Earlier results, collected in patent US6913760B2, “Drug delivery composition” (New England Medical Hospitals, Inc., priority 2001, dated 2005).
At least one structure is not confirmed: it was looked up by name or label, or the drawing left a doubt.

Test system: sciatic nerve
Conditions: 0.05% w/w in bupivacaine microspheres; cited from earlier work

C[C@@H]1C[C@H]2[C@@H]3CCC4=CC(=O)C=C[C@]4(C)[C@@]3(F)[C@@H](O)C[C@]2(C)[C@@]1(O)C(=O)CO [dexamethasone]
increase of block duration: ca. 13 fold
